Consider 3 substances from patent publication US20110189097A1.

The chains behind the UniProt entries cited, without tags or fusion partners. Where a name states a change or a piece, a line headed by the entry shows the natural chain unless it says otherwise. Residues count along the entry.
UniProt Q8J025: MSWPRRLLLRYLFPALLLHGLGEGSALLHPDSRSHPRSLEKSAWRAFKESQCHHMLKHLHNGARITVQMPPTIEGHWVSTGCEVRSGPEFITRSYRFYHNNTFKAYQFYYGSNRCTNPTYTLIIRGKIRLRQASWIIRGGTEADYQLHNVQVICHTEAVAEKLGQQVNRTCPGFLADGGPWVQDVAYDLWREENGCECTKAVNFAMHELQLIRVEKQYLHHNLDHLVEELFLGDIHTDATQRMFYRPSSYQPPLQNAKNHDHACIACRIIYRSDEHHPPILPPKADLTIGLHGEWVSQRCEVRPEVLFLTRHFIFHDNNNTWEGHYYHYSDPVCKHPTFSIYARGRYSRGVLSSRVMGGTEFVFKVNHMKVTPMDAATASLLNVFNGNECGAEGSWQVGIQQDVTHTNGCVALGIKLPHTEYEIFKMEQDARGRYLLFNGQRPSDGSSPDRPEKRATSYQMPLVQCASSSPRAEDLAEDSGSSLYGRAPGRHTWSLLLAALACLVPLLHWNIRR
UniProt P56704, residues 19-352: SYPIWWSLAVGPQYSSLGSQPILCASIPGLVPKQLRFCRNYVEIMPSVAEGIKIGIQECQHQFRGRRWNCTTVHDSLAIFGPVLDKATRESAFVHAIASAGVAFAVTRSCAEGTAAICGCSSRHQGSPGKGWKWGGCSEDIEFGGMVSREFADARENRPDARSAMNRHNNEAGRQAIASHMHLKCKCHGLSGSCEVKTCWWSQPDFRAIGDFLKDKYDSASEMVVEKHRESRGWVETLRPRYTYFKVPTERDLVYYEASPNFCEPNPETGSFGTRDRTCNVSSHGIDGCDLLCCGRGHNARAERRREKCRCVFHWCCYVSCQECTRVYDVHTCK

No constants are given. Whether binding was seen depends on the method and setting. Binding seen in cells or lysates may run through a third protein. Some results given as binding are weak or reduced against the parent protein; the word gives no strength.

The target in experiment [1] is Flag-tagged APCDD1 (APCDD1-Flag) (human) (UniProt Q8J025). Kind of experiment: co-immunoprecipitation (homodimerization).
The target in experiment [2] is HA-tagged APCDD1 (APCDD1-HA) (human) (UniProt Q8J025). Briefly: co-immunoprecipitation (homodimerization).
For experiment [3], the target named is HA-tagged WNT3A (WNT3A-HA) (human) (UniProt P56704). Briefly: co-immunoprecipitation.
For experiment [4] the target is unchanged. Briefly: co-immunoprecipitation in HEK293T cells.
The target is the same in experiment [5]. Kind of experiment: summary sentence of the in vitro interaction assays (co-IP, GST pulldown).

Take “HA-tagged APCDD1 (APCDD1-HA) (from UniProt Q8J025 27-514)”: in experiment [1], the binding result was “binds”. In the case of “Flag-tagged APCDD1 (APCDD1-Flag) (from UniProt Q8J025 27-514)”, the binding entry in experiment [2] is “binds”. As for “Flag-tagged extracellular domain of APCDD1 protein (APCDD1-ΔTM-Flag) (from UniProt Q8J025 27-486)”, the binding entry in experiment [3], in experiment [4] and in experiment [5] was “binds” in each case.
